Results taken from US12616750B2, “Combination therapy utilizing DNA alkylating agents and ATR inhibitors” (Merck Patent GmbH, priority 2018, dated 2026).
Where two headings read alike, the source gives them in different places.

Assays:
HCC-1954 cells = assay: Cytotoxicity (cell viability, CellTiter-Glo, 6 d)
NCI-N87 cells = assay: Cytotoxicity (cell viability, CellTiter-Glo, 6 d); assay type: cell-based; details: Homo sapiens, NCI-N87, read-out: cellular cytotoxicity, potency
Procedure: Compounds were added using Tecan D300e liquid. […] Synergy scores were calculated using LOEWE synergy model.

| SMILES | IC50 (HCC-1954 cells; read-out: Cytotoxicity IC50, ATRi alone, HCC-1954, mean ± SD) | IC50 (NCI-N87 cells) | IC50 (HCC-1954 cells; Homo sapiens, HCC1954, read-out: Cytotoxicity IC50) |
| --- | --- | --- | --- |
| C[C@@H]1COCCN1c1cc(-c2ccnn2C)c2ccnc(-c3ccn[nH]3)c2n1 [ATRi 1] | 400 ± 200 nM |  |  |
| C[C@@H]1COCCN1c1cc(-c2ccnn2C)c2ccnc(-c3ccn[nH]3)c2n1 [BAY1895344] |  | 300 ± 300 nM | 50 ± 20 nM |
